Assay results as given in publication PMC8980629.
Results are given in words; binding and its absence hold for the method and conditions named. For some of these results: Binding seen in cells or lysates may run through a third protein. Some results given as binding are weak or reduced against the parent protein; the word gives no strength. Each block holds one substance with its values, some of them ahead of it.

The chains behind the UniProt entries cited, without tags or fusion partners. Where a name states a change or a piece, a line headed by the entry shows the natural chain unless it says otherwise. A line that says so, or that is headed by a name, gives the form on record, which may keep a tag or linker.
UniProt P23258: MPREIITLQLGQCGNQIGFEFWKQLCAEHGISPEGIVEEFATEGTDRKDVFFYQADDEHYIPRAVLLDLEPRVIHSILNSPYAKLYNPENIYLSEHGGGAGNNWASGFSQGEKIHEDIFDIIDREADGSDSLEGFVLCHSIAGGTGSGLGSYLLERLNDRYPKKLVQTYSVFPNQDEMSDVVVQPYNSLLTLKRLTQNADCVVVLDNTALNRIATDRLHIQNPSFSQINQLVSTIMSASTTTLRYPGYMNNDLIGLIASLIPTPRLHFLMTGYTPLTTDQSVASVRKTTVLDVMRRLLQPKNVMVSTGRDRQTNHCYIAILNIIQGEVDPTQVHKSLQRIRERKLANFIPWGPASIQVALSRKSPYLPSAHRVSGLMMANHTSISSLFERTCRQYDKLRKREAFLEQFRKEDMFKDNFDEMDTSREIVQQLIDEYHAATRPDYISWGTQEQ
UniProt P00519: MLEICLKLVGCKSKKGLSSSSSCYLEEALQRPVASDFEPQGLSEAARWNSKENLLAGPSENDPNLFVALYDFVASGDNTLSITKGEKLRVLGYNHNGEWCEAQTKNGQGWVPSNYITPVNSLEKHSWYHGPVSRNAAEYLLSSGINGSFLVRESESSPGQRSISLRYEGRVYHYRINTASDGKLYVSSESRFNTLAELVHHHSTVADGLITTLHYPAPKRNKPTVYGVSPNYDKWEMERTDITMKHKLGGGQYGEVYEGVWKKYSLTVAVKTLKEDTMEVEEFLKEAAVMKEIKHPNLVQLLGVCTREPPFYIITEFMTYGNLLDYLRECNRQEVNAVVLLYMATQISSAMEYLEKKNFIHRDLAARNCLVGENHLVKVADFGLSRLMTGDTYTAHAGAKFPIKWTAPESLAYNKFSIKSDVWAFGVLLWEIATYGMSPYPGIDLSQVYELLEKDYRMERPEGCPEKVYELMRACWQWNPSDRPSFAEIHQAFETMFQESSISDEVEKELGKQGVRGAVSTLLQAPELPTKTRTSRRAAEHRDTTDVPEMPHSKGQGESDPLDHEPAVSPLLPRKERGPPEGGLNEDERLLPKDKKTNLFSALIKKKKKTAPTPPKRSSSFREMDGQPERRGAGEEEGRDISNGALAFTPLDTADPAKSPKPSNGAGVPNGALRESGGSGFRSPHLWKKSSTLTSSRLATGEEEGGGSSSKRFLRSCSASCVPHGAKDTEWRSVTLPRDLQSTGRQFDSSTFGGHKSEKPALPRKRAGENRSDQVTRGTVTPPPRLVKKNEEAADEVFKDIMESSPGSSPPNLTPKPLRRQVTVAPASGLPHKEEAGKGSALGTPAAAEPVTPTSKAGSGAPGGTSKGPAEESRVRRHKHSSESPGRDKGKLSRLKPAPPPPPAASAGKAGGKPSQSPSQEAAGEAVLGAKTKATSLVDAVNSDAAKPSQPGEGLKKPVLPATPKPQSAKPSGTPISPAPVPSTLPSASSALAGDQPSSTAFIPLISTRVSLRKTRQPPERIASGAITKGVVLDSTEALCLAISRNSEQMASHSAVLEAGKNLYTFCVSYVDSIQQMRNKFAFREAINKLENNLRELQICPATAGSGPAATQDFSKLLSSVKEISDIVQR
Myc-c-Abl(K290R) (P00519-2, form named): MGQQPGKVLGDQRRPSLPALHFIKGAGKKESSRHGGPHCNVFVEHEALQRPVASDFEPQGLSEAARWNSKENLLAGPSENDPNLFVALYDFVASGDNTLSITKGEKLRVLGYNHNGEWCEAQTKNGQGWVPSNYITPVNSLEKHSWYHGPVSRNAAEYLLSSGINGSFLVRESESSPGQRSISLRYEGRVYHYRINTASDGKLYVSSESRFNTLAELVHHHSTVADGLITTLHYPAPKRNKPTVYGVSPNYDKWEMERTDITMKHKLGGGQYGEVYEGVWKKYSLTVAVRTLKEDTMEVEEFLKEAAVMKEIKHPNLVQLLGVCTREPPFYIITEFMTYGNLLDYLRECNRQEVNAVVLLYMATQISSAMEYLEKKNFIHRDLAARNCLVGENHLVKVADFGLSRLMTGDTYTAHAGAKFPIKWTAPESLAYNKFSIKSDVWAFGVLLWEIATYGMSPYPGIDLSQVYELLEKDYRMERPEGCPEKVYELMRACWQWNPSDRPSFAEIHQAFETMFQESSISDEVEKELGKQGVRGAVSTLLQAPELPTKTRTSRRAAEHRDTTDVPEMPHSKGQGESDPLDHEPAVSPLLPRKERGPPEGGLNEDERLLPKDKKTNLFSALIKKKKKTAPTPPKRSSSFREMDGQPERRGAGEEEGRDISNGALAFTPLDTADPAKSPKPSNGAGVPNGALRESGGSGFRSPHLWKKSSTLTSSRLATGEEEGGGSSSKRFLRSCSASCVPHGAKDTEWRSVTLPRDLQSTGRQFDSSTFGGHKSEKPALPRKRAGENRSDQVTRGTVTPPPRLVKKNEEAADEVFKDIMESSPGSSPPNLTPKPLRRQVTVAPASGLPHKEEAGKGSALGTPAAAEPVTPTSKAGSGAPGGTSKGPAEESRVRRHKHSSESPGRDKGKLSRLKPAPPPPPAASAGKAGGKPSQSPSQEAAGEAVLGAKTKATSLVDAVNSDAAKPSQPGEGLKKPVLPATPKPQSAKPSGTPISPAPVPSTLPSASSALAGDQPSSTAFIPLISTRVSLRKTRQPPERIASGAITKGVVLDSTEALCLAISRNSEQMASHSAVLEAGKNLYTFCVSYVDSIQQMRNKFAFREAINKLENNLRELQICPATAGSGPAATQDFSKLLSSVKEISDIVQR
Myc-c-Abl (P00519-2, form named): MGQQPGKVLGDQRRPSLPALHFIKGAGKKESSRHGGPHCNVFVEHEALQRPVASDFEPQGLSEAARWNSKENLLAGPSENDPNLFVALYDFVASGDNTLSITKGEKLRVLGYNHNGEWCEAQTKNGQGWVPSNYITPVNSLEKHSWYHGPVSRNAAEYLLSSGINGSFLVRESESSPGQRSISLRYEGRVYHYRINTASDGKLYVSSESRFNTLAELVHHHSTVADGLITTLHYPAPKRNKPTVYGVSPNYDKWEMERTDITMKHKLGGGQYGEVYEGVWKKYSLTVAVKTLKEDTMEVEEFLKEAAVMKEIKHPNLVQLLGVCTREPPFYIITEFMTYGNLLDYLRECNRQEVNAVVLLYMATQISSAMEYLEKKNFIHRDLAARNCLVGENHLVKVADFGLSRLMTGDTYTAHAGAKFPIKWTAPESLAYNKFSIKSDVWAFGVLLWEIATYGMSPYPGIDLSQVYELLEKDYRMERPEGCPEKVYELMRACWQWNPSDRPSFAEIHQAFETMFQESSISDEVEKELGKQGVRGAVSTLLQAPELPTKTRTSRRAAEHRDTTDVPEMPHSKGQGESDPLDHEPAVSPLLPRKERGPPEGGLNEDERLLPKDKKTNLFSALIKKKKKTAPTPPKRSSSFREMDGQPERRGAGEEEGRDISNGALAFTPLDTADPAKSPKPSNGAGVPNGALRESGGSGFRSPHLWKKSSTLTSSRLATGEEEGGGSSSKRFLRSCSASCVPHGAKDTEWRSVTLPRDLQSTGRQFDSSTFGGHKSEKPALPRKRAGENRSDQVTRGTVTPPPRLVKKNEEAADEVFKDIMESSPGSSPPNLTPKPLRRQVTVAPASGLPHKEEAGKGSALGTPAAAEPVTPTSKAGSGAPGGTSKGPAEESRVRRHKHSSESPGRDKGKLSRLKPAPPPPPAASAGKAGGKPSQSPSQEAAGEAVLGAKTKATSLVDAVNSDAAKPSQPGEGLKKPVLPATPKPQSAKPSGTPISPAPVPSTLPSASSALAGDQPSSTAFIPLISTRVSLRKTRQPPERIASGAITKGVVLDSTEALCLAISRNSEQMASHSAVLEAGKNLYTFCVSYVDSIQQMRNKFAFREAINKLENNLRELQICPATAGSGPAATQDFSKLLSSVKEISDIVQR
UniProt Q96RT8: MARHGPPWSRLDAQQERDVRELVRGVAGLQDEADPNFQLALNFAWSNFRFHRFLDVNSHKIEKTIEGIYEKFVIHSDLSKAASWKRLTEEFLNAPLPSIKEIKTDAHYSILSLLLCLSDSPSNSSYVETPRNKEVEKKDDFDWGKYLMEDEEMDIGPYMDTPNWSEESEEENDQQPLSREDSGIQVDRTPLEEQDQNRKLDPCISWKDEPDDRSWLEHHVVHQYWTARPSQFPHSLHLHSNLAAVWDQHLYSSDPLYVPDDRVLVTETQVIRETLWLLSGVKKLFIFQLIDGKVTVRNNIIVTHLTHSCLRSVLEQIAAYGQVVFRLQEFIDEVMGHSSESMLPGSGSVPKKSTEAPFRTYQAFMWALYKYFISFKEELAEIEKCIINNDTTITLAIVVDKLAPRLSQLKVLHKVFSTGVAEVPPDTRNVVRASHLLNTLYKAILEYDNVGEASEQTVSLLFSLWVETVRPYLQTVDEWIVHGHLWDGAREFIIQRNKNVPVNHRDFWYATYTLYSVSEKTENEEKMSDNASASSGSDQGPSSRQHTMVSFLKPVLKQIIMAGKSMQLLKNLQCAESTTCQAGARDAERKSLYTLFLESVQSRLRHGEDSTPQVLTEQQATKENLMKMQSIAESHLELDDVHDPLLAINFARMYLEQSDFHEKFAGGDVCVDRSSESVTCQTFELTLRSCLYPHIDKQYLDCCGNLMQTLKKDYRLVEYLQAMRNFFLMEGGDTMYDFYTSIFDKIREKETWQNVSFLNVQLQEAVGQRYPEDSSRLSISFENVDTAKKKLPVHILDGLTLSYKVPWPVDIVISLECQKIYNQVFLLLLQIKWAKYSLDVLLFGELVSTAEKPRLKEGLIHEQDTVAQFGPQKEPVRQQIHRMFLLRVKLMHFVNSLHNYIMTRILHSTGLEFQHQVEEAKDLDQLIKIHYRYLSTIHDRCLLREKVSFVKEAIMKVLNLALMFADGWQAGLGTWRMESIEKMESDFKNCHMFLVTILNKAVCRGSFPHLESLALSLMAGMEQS
UniProt P42684: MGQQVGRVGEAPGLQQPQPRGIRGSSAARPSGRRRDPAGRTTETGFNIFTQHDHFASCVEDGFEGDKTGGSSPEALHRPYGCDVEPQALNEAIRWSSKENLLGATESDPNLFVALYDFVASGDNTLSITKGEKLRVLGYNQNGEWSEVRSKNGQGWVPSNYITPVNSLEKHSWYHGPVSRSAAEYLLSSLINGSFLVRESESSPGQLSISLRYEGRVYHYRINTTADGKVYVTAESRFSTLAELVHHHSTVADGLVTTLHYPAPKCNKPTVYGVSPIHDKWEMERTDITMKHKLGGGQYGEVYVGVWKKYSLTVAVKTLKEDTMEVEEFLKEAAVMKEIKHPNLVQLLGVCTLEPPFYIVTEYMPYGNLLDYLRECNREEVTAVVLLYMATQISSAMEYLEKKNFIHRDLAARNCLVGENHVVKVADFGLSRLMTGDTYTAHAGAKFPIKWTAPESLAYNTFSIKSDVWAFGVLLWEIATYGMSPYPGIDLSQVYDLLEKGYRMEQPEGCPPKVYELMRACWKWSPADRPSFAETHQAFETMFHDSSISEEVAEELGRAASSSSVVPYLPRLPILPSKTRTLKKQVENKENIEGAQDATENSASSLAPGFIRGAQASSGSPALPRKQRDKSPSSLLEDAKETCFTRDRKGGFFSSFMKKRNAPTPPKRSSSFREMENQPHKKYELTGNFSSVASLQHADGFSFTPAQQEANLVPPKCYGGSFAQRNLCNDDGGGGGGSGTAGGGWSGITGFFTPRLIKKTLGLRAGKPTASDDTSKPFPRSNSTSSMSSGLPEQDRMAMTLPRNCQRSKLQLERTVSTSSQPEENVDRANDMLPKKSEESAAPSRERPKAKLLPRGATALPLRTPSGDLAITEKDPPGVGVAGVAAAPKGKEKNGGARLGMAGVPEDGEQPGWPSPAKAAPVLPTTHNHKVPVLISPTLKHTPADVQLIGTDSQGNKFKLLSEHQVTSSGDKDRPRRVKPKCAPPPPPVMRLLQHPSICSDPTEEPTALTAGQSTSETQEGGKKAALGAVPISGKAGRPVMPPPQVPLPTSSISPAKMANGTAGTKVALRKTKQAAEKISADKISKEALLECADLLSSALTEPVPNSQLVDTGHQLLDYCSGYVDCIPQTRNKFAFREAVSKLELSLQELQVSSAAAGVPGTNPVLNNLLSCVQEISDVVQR

Assays:
Flag-γ-tubulin (human) [1] = biological target: Flag-γ-tubulin (human) (UniProt P23258); assay: co-IP; anti-Flag immunoprecipitation of lysates of HEK293T cells transfected with Flag-γ-tubulin or Flag-γ-tubulin(Y443F) and Myc-c-Abl or Myc-c-Abl(K290R), treated with or without nilotinib (10 μM) or STI571 (10 μM); immunoblot
Myc-c-Abl = Myc-c-Abl (UniProt P00519); assay: co-IP; anti-Myc immunoprecipitation of lysates of HEK293T cells cotransfected with Myc-c-Abl and γ-tubulin-Flag; immunoblot
[2] = biological target: γ-tubulin (endogenous) (human (endogenous in MCF-7, U2OS, HeLa)) (UniProt P23258); assay: co-IP; anti-γ-tubulin against control IgG, MCF-7 lysate, endogenous proteins; immunoblot
[3] = biological target: GCP5 (endogenous) (human (endogenous in U2OS, MCF-7)) (UniProt Q96RT8); assay: co-IP; anti-GCP5 (Santa Cruz) against control IgG, lysates of wild-type or abl1−/−abl2−/− U2OS or MCF-7 cells, or U2OS stably expressing γ-tubulin-Flag or γ-tubulin(Y443F)-Flag; 50 mM Tris-HCl pH 7.5, 150 mM NaCl, 1 mM EDTA, 1% Nonidet P-40; immunoblot
[4] = biological target: γ-tubulin (endogenous) (human (endogenous in MCF-7, U2OS, HeLa)) (UniProt P23258); assay: proximity ligation; Duolink in situ PLA with anti-c-Abl (rabbit) and anti-γ-tubulin (mouse) in fixed HeLa cells stably expressing GFP-H2B; interphase and mitosis
GST-c-Abl SH3 = GST-c-Abl SH3 (UniProt P00519); assay: pull-down; lysates of HEK293T cells expressing Flag-γ-tubulin and Myc-c-Abl incubated 2 h at 4 °C with about 5 μg purified GST or GST fusion protein on glutathione beads; anti-Flag immunoblot; only the target purified
Flag-c-Abl = Flag-c-Abl (UniProt P00519); assay: far-Western, overlay or dot blot; anti-Flag immunoprecipitates from HEK293T resolved by SDS-PAGE and blotted onto PVDF; membrane incubated with purified GST or GST fusion protein 2 h at room temperature; probed with anti-GST; both purified
Flag-γ-tubulin (human) [5] = biological target: Flag-γ-tubulin (human) (UniProt P23258); assay: as above
Flag-γ-tubulin (human) [6] = biological target: Flag-γ-tubulin (human) (UniProt P23258); assay: condition: only cells treated with nilotinib (10 μM); co-IP; anti-Flag immunoprecipitation of lysates of HEK293T cells transfected with Flag-γ-tubulin and Myc-c-Abl, cells treated with nilotinib (10 μM); immunoblot
Flag-γ-tubulin (human) [7] = biological target: Flag-γ-tubulin (human) (UniProt P23258); assay: co-IP; anti-Flag immunoprecipitation of lysates of HEK293T cells transfected with Flag-γ-tubulin and Myc-c-Abl, cells treated with STI571 (10 μM); immunoblot
[8] = biological target: Flag-γ-tubulin(Y443F) (human) (UniProt P23258); assay: co-IP; anti-Flag immunoprecipitation of lysates of HEK293T cells transfected with Flag-γ-tubulin or Flag-γ-tubulin(Y443F) and Myc-c-Abl or Myc-c-Abl(K290R), treated with or without nilotinib (10 μM) or STI571 (10 μM); immunoblot

binding (Flag-γ-tubulin (human) [1]): no binding
Substance: Myc-c-Abl(K290R) (from UniProt P00519-2 1-1149) (enzyme)

binding [2]: binds | binding [3]: binds | binding [4]: binds
Substance: c-Abl (endogenous) (from UniProt P00519 1-1130) (enzyme)

binding (Flag-c-Abl): binds
Substance: GST-γ-tubulin (from UniProt P23258 1-451)

binding (Flag-γ-tubulin (human) [6]): no binding | binding (Flag-γ-tubulin (human) [1]): binds | binding [8]: binds
Substance: Myc-c-Abl (from UniProt P00519-2 1-1149) (enzyme)
binding (Flag-γ-tubulin (human) [7]): no binding (condition: cells treated with STI571 (10 μM))

Continued, substance first:

Substance: γ-tubulin-Flag (HEK293T) (from UniProt P23258 1-451)
binding (Myc-c-Abl): binds

Substance: Arg (endogenous) (from UniProt P42684 1-1182) (enzyme)
binding [2]: binds

Substance: Flag-γ-tubulin (from UniProt P23258 1-451)
binding (GST-c-Abl SH3): no binding

Substance: GST-c-Abl SH3 (from UniProt P00519 61-121) (domain or fragment)
binding (Flag-γ-tubulin (human) [5]): no binding
